# Laboratory results reported in patent US7119094B1, “Substituted polycyclic aryl and heteroarpyl pyrazinones useful for selective inhibition of the coagulation cascade” (Warner-Lambert Company, priority 2000, dated 2006).
# Protein sequences, listed by entry. Tags and fused reporters are not part of them. Residues count along the entry.
# UniProt P00761, 9-231: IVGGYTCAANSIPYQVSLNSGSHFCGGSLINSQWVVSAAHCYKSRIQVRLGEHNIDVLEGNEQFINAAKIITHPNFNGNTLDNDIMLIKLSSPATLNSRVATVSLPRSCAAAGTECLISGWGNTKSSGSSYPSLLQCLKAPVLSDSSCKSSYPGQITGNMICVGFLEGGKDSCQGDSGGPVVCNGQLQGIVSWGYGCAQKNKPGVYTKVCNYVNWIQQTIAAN
# Molecular target: T1, Trypsin (type 1× from porcine pancreas) (Sus scrofa, UniProt P00761)
# T1 construct: Trypsin (5 ug/ml; type 1× from porcine pancreas); purchased Sigma, St. Louis Mo; host or cells: porcine pancreas
# Experiment: Trypsin Assay
# Type: biochemical
# Parameters: concentration or dose not given beside the values
smiles,measurement,value
COCCNc1nc(Cl)c(-c2ccccc2)n(CC(=O)NCc2ccc(C(=N)N)cc2)c1=O [1507-33],% Inhibition Trypsin II @ 1,2% @ 1
